Data on 1 molecule can be found in the supplement of paper PMC8728848.

This is one part of the list.

Common to all, as to experiment: glycan array binding signal (z-score within array); higher = stronger binding
Details in all cases: glycan notation: IUPAC condensed, linker removed

The target of test [1] is Gal(b1-4)GlcNAc(b1-3)Gal(b1-4)Glc. The procedure, abridged: (§1)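 Negative Z-scores can be read as non-binding. The Z-score is calculated within each array and then averaged across arrays of one protein sequence at different concentrations or buffers and across linkers. Arrays, 3228 in all, were curated from the Consortium for Functional Glycomics database and kept only where the protein sequence was available.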

For test [2], the target named is Gal(b1-4)GlcNAc(b1-3)Gal(b1-4)GlcNAc. In outline:
as §1

For test [3], the target named is Gal(b1-4)GlcNAc(b1-3)Gal(b1-4)GlcNAc(b1-2)Man(a1-3)[Gal(b1-4)GlcNAc(b1-3)Gal(b1-4)GlcNAc(b1-2)Man(a1-6)]Man(b1-4)GlcNAc(b1-4)GlcNAc. In outline: as §1
The target of test [4] is Gal(b1-4)GlcNAc(b1-3)Gal(b1-4)GlcNAc(b1-2)Man(a1-3)[Gal(b1-4)GlcNAc(b1-3)Gal(b1-4)GlcNAc(b1-2)Man(a1-6)]Man(b1-4)GlcNAc(b1-4)[Fuc(a1-6)]GlcNAc. In outline: as §1
Test [5] deals with Gal(b1-4)GlcNAc(b1-3)Gal(b1-4)GlcNAc(b1-2)[Gal(b1-4)GlcNAc(b1-3)Gal(b1-4)GlcNAc(b1-6)]Man(a1-6)[Gal(b1-4)GlcNAc(b1-3)Gal(b1-4)GlcNAc(b1-2)Man(a1-3)]Man(b1-4)GlcNAc(b1-4)GlcNAc. In outline:
as §1

The target in test [6] is Gal(b1-4)GlcNAc(b1-3)Gal(b1-4)GlcNAc(b1-2)[Gal(b1-4)GlcNAc(b1-3)Gal(b1-4)GlcNAc(b1-6)]Man(a1-6)[Gal(b1-4)GlcNAc(b1-3)Gal(b1-4)GlcNAc(b1-2)Man(a1-3)]Man(b1-4)GlcNAc(b1-4)[Fuc(a1-6)]GlcNAc. In outline:
as §1

Test [7] concerns the target Gal(b1-4)GlcNAc(b1-3)Gal(b1-4)GlcNAc(b1-3)Gal(b1-4)GlcNAc. The procedure, abridged: as §1
For test [8], the target named is Gal(b1-4)GlcNAc(b1-3)Gal(b1-4)GlcNAc(b1-3)Gal(b1-4)GlcNAc(b1-2)Man(a1-3)[Gal(b1-4)GlcNAc(b1-3)Gal(b1-4)GlcNAc(b1-3)Gal(b1-4)GlcNAc(b1-2)Man(a1-6)]Man(b1-4)GlcNAc(b1-4)GlcNAc. The procedure, abridged:
as §1

The target in test [9] is Gal(b1-4)GlcNAc(b1-3)Gal(b1-4)GlcNAc(b1-3)Gal(b1-4)GlcNAc(b1-2)Man(a1-3)[Gal(b1-4)GlcNAc(b1-3)Gal(b1-4)GlcNAc(b1-3)Gal(b1-4)GlcNAc(b1-2)Man(a1-6)]Man(b1-4)GlcNAc(b1-4)[Fuc(a1-6)]GlcNAc. In outline: as §1
Test [10] addresses Gal(b1-4)GlcNAc(b1-3)Gal(b1-4)GlcNAc(b1-3)Gal(b1-4)GlcNAc(b1-2)[Gal(b1-4)GlcNAc(b1-3)Gal(b1-4)GlcNAc(b1-3)Gal(b1-4)GlcNAc(b1-6)]Man(a1-6)[Gal(b1-4)GlcNAc(b1-3)Gal(b1-4)GlcNAc(b1-3)Gal(b1-4)GlcNAc(b1-2)Man(a1-3)]Man(b1-4)GlcNAc(b1-4)[Fuc(a1-6)]GlcNAc. The procedure, abridged:
as §1

Test [11] deals with Gal(b1-4)GlcNAc(b1-3)Gal(b1-4)GlcNAc(b1-3)Gal(b1-4)GlcNAc(b1-3)Gal(b1-4)GlcNAc(b1-2)Man(a1-3)[Gal(b1-4)GlcNAc(b1-3)Gal(b1-4)GlcNAc(b1-3)Gal(b1-4)GlcNAc(b1-3)Gal(b1-4)GlcNAc(b1-2)Man(a1-6)]Man(b1-4)GlcNAc(b1-4)GlcNAc. In outline: as §1
For test [12], the target named is Gal(b1-4)GlcNAc(b1-3)Gal(b1-4)GlcNAc(b1-3)Gal(b1-4)GlcNAc(b1-3)Gal(b1-4)GlcNAc(b1-2)Man(a1-3)[Gal(b1-4)GlcNAc(b1-3)Gal(b1-4)GlcNAc(b1-3)Gal(b1-4)GlcNAc(b1-3)Gal(b1-4)GlcNAc(b1-2)Man(a1-6)]Man(b1-4)GlcNAc(b1-4)[Fuc(a1-6)]GlcNAc. In outline: as §1
Test [13] concerns the target Gal(b1-4)GlcNAc(b1-3)Gal(b1-4)GlcNAc(b1-3)Gal(b1-4)GlcNAc(b1-3)Gal(b1-4)GlcNAc(b1-2)[Gal(b1-4)GlcNAc(b1-3)Gal(b1-4)GlcNAc(b1-3)Gal(b1-4)GlcNAc(b1-3)Gal(b1-4)GlcNAc(b1-6)]Man(a1-6)[Gal(b1-4)GlcNAc(b1-3)Gal(b1-4)GlcNAc(b1-3)Gal(b1-4)GlcNAc(b1-3)Gal(b1-4)GlcNAc(b1-2)Man(a1-3)]Man(b1-4)GlcNAc(b1-4)[Fuc(a1-6)]GlcNAc. In outline: as §1
Test [14] concerns the target Gal(b1-4)GlcNAc(b1-3)Gal(b1-4)GlcNAc(b1-3)Gal(b1-4)GlcNAc(b1-3)Gal(b1-4)GlcNAc(b1-3)Gal(b1-4)GlcNAc(b1-2)Man(a1-3)[Gal(b1-4)GlcNAc(b1-3)Gal(b1-4)GlcNAc(b1-3)Gal(b1-4)GlcNAc(b1-3)Gal(b1-4)GlcNAc(b1-3)Gal(b1-4)GlcNAc(b1-2)Man(a1-6)]Man(b1-4)GlcNAc(b1-4)GlcNAc. In outline: as §1
Test [15] has as its target Gal(b1-4)GlcNAc(b1-3)Gal(b1-4)GlcNAc(b1-3)Gal(b1-4)GlcNAc(b1-3)Gal(b1-4)GlcNAc(b1-3)Gal(b1-4)GlcNAc(b1-2)Man(a1-3)[Gal(b1-4)GlcNAc(b1-3)Gal(b1-4)GlcNAc(b1-3)Gal(b1-4)GlcNAc(b1-3)Gal(b1-4)GlcNAc(b1-3)Gal(b1-4)GlcNAc(b1-2)Man(a1-6)]Man(b1-4)GlcNAc(b1-4)[Fuc(a1-6)]GlcNAc. In outline:
as §1

Test [16] concerns the target Gal(b1-4)GlcNAc(b1-3)Gal(b1-4)GlcNAc(b1-3)Gal(b1-4)GlcNAc(b1-3)Gal(b1-4)GlcNAc(b1-3)Gal(b1-4)GlcNAc(b1-2)[Gal(b1-4)GlcNAc(b1-3)Gal(b1-4)GlcNAc(b1-3)Gal(b1-4)GlcNAc(b1-3)Gal(b1-4)GlcNAc(b1-3)Gal(b1-4)GlcNAc(b1-6)]Man(a1-6)[Gal(b1-4)GlcNAc(b1-3)Gal(b1-4)GlcNAc(b1-3)Gal(b1-4)GlcNAc(b1-3)Gal(b1-4)GlcNAc(b1-3)Gal(b1-4)GlcNAc(b1-2)Man(a1-3)]Man(b1-4)GlcNAc(b1-4)[Fuc(a1-6)]GlcNAc. The procedure, abridged: as §1

In test [17] the target is Gal(b1-4)GlcNAc(b1-3)Gal(b1-4)GlcNAc(b1-3)Gal(b1-4)GlcNAc(b1-3)Gal(b1-4)GlcNAc(b1-3)Gal(b1-4)GlcNAc(b1-3)Gal(b1-4)GlcNAc(b1-2)Man(a1-3)[Gal(b1-4)GlcNAc(b1-3)Gal(b1-4)GlcNAc(b1-3)Gal(b1-4)GlcNAc(b1-3)Gal(b1-4)GlcNAc(b1-3)Gal(b1-4)GlcNAc(b1-3)Gal(b1-4)GlcNAc(b1-2)Man(a1-6)]Man(b1-4)GlcNAc(b1-4)GlcNAc. In outline: as §1
Test [18] has as its target Gal(b1-4)GlcNAc(b1-3)Gal(b1-4)GlcNAc(b1-3)GalNAc. The procedure, abridged: as §1
Test [19] has as its target Gal(b1-4)GlcNAc(b1-3)Gal(b1-4)GlcNAc(b1-3)[Gal(b1-4)GlcNAc(b1-3)Gal(b1-4)GlcNAc(b1-6)]GalNAc. In outline:
as §1

B1: PX14343G-pdi-535-24-535 (Parabacteroides distasonis) (protein)
chain: LDTVPKDQLAPSTTWQTEADAKGFIVGCYKDLLDGNTLLYLDCGSDIGYNNFPWEGFRPWGDGSLSSSNPGQILYDYKSIRKANTFLENVDKVTFSSDAVKANYVAQAKAIRAYKYFLMNWWYGGVPIISSYSSADEAKVERNTEQEVRDYIAKDLDEALAGIAEAPEARGYIAKGAVLAIKMREALYYGDWQKAKDAAKAIIDLKQYELDPDYTNLFKVSGVDSKEIILADQNIETLDGLGTIGQMYNNVDQGWSSIVPTQNLVDMYEMSDGLTKEESKTYDAKHPFANRDPRMAMTILYPGRDWRGDVLNTLDEKLQDGTVNKNFPTYTDNASKSALTWAKYLDPMDQYGDVWSSGACPIVFRYAEVLLTYAEAANELSGPSDEIYGYLNQIRQRVGMGEVDKAKYGTKDKLRELIRRERTVELAGEGLRRADIVRWQEDGKMLAEKVMNGDLLRVTGTINYGESEPTKRAEITGTAVIETRQFSSRNRYLPIPQTSMDKNPNLKQNPGY
On to B1, for which the “glycan array binding signal (z-score)” value in [1] is 0.341; in test [2], -0.571; in [3], 1.14; in test [4], 2.06; in test [5] it was 0.76; in test [6], 1.34. Further, the “glycan array binding signal (z-score)” value in test [7] was -0.427; in test [8] it was 1.65; in test [9], 1.91; in test [10], 3.07; in test [11], 0.004; in test [12], 0.732. Further, the “glycan array binding signal (z-score)” value in test [13] came to 0.418; in test [14], 2.76; in test [15] it was 1.56; in test [16] it was 0.853; in [17], 0.518; in test [18], 0.065. Moreover, the “glycan array binding signal (z-score)” value in test [19] was found to be 1.26.
